Results from paper PMC4458842.
These are yes or no findings as the source states them, for the method shown. Binding seen in cells or lysates may run through a third protein. A result given as binding can be weak or reduced; the word gives no strength. Tags and fused reporters may be left off the sequences shown.

The chains behind the UniProt entries cited, without tags or fusion partners. Where a name states a change or a piece, a line headed by the entry shows the natural chain unless it says otherwise.
UniProt Q9SRY3: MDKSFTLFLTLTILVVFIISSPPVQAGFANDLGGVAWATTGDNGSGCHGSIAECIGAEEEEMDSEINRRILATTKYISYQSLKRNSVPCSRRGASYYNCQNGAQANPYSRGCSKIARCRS

Target: MBP-RALF1 (Arabidopsis) (UniProt Q9SRY3)
Assay: pull-down; MBP-RALF1 bait on resin; extract of protoplasts co-expressing FER-GFP and HA-LLG1; detected by anti-GFP or anti-HA; only the target purified

binding: binds
B1: HA-LLG1 (protein, UniProt Q9FKT1 24-144)
chain: SFISDGVFESQSLVLGRNLLQTKKTCPVNFEFMNYTIITSKCKGPKYPPKECCGAFKDFACPYTDQLNDLSSDCATTMFSYINLYGKYPPGLFANQCKEGKEGLECPAGSQLPPETSAEVN
